# Source: patent US20240124607A1
# By UniProt entry, the sequences of proteins in these tests, tags left out. Where a name states a change or a piece, a line headed by the entry shows the natural chain unless it says otherwise.
# UniProt O54709: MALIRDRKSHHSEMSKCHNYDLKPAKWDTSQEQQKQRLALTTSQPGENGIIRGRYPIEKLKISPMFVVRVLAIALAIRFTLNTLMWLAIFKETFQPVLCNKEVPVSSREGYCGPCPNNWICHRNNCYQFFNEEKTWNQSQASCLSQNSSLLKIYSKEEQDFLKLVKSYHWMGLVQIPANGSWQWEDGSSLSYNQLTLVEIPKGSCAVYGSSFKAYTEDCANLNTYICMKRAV
# These are yes or no findings as the source states them, for the method shown. Some results given as binding are weak or reduced against the parent protein; the word gives no strength.
# Molecular target: mouse NKG2D-CD3 zeta chimeric antigen receptor on EL4 cells (mouse) (UniProt O54709)
# Test: flow cytometry at 100 nM on EL4 cells expressing mouse NKG2D-CD3 zeta CAR, MFI fold over parental EL4
row,binding,Binder
1,binds,"ADI-27740 (antibody, V domains shown) VH: QVQLQQWGAGLLKPSETLSLTCAVYGGSFSGYYWSWIRQPPGKGLEWIGEIDHSGSTNYNPSLKSRVTISVDTSKNQFSLKLSSVTAADTAVYYCARARGPWSFDPWGQGTLVTVSS VL: DIQMTQSPSTLSASVGDRVTITCRASQSIGSWLAWYQQKPGKAPKLLIYKASSLESGVPSRFSGSGSGTEFTLTISSLQPDDFATYYCQQYHSFYTFGGGTKVEIK"
2,binds,"ADI-28226 (antibody, V domains shown) VH: QVQLQQWGAGLLKPSETLSLTCAVYGGSFSGYYWSWIRQPPGKGLEWIGEIDHSGSTNYNPSLKSRVTISVDTSKNQFSLKLSSVTAADTAVYYCARARGPWSFDPWGQGTLVTVSS VL: DIQMTQSPSTLSASVGDRVTITCRASQSISSWLAWYQQKPGKAPKLLIYKASSLESGVPSRFSGSGSGTEFTLTISSLQPDDFATYYCQQYGSFPITFGGGTKVEIK"
3,binds,"ADI-27741 (antibody, V domains shown) VH: QVQLQQWGAGLLKPSETLSLTCAVYGGSFSGYYWSWIRQPPGKGLEWIGEIDHSGSTNYNPSLKSRVTISVDTSKNQFSLKLSSVTAADTAVYYCARARGPWSFDPWGQGTLVTVSS VL: DIQMTQSPSTLSASVGDRVTITCRASQSIGSWLAWYQQKPGKAPKLLIYKASSLESGVPSRFSGSGSGTEFTLTISSLQPDDFATYYCQQSNSYYTFGGGTKVEIK"
